Data as given in PubChem BioAssay AID1159578 (Peter MacCallum Cancer Centre, 2015).
Assay: 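Genome-wide hunt for genes controlling movement of lymphatic endothelial cells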 (primary screen). Cell system: human lymphatic endothelial cells. Reagent: siRNA pool against human genes, 40 nM. Timing: 48 h after transfection. Measured: 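High-content imaging of dye-stained cells in a scratch assay measures filled wound area and nuclei per well; duplicate means given as ratio to mock and robust z-score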. Scale: migration robust z-score: higher = faster migration into the scratch; migration relative to mock: higher = more scratch area covered than mock; nuclei per well: higher = more cells in the well. Active means: 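Migration changed when robust z exceeds 2 or falls below -2 and mean nuclei number is at least 3300; otherwise not called changed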. Meaning of the calls: active = migration changed; inactive = no migration change, or too few cells.
The whole screen tested about 18,000 reagents; below is a part drawn at random. About 1,030 of them (5.7%) count as active. 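Inactive calls also include pools with fewer than 3300 nuclei, whose migration was not assessed.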 Raw values are not corrected between plates.

migration robust z-score	migration class with cell-count check	migration relative to mock	nuclei per well, duplicate mean	Call	gene	PubChem SID
-0.36	migration z between -2 and 2; enough cells	0.74	4666	inactive	TRPC1	SID255352970
0.28	migration z between -2 and 2; enough cells	0.96	6082	inactive	DRP2	SID255349372
1.56	migration z between -2 and 2; enough cells	1.1	5666	inactive	PUDP	SID255353429
0.78	migration z between -2 and 2; enough cells	1.08	6507	inactive	DYNC2H1	SID255360366
0.22	migration z between -2 and 2; enough cells	0.94	6560	inactive	RASA1	SID255352053
-1.14	migration z between -2 and 2; enough cells	0.58	5596	inactive	SOCS5	SID255354447
-1.34	migration z between -2 and 2; enough cells	0.54	5567	inactive	OSCP1	SID255362767
-1.31	migration z between -2 and 2; enough cells	0.54	4354	inactive	GCHFR	SID255349853
2.27	migration z above 2; enough cells	1.48	4936	active	QTMAN	SID255360408
-0.06	migration z between -2 and 2; enough cells	0.87	5208	inactive	PCYOX1L	SID255360144
-0.68	migration z between -2 and 2; enough cells	0.71	4791	inactive	SLC39A7	SID255353341
-1.27	migration z between -2 and 2; enough cells	0.56	4295	inactive	PLA2G1B	SID255351606
-1.54	migration z between -2 and 2; enough cells	0.48	6416	inactive	SHBG	SID255352406
-0.75	migration z between -2 and 2; enough cells	0.69	6042	inactive	KXD1	SID255360177
1.58	migration z between -2 and 2; enough cells	1.11	5056	inactive	ITGAV	SID255350547
-0.48	migration z between -2 and 2; enough cells	0.76	5750	inactive	DXO	SID255349351
0.57	migration z between -2 and 2; enough cells	0.92	6472	inactive	SLCO4A1	SID255357062
-0.26	migration z between -2 and 2; enough cells	0.76	3613	inactive	KCTD20	SID255364354
1.18	migration z between -2 and 2; enough cells	1.19	5832	inactive	TNFSF4	SID255353010
-1.92	migration z between -2 and 2; enough cells	0.44	4002	inactive	NCK2	SID255353553
1.15	migration z between -2 and 2; enough cells	1.02	5617	inactive	LPAR6	SID255354859
-1.25	migration z between -2 and 2; enough cells	0.56	4475	inactive	AFG1L	SID255364401
-3.86	under 3300 nuclei; migration not judged	-0.12	3177	inactive	C5orf22	SID255358597
-0.62	migration z between -2 and 2; enough cells	0.68	4964	inactive	CBX7	SID255356275
-0.15	migration z between -2 and 2; enough cells	0.84	5144	inactive	SPP2	SID255352599
-1.53	migration z between -2 and 2; enough cells	0.48	5856	inactive	BANF1	SID255353835
-0.36	migration z between -2 and 2; enough cells	0.74	4144	inactive	FADS2	SID255354260
-0.37	migration z between -2 and 2; enough cells	0.79	6391	inactive	GNB3	SID255349945
1.35	migration z between -2 and 2; enough cells	1.06	4894	inactive	CSNK2A1	SID255349131
0.48	migration z between -2 and 2; enough cells	1.01	6647	inactive	SLC35F2	SID255358138
-1.98	migration z between -2 and 2; enough cells	0.43	4634	inactive	PIP5K1C	SID255356209
-2.66	under 3300 nuclei; migration not judged	0.2	1926	inactive	IFITM2	SID255355200
-0.88	migration z between -2 and 2; enough cells	0.66	5956	inactive	BLOC1S2	SID255364631
0.88	migration z between -2 and 2; enough cells	1.12	5660	inactive	LMO2	SID255350777
-1.74	migration z between -2 and 2; enough cells	0.47	3800	inactive	RHOC	SID255348387
0.5	migration z between -2 and 2; enough cells	0.9	6086	inactive	ALLC	SID255358890
-0.03	migration z between -2 and 2; enough cells	0.8	5788	inactive	GALNT3	SID255349822

Continued (4 carried over from the part before).
migration robust z-score	migration class with cell-count check	migration relative to mock	nuclei per well, duplicate mean	Call	gene	PubChem SID
0.88	migration z between -2 and 2; enough cells	1.12	5660	inactive	LMO2	SID255350777
-1.74	migration z between -2 and 2; enough cells	0.47	3800	inactive	RHOC	SID255348387
0.5	migration z between -2 and 2; enough cells	0.9	6086	inactive	ALLC	SID255358890
-0.03	migration z between -2 and 2; enough cells	0.8	5788	inactive	GALNT3	SID255349822
-2.1	migration z below -2; enough cells	0.4	4844	active	PSMC3	SID255351896
0.3	migration z between -2 and 2; enough cells	0.96	5538	inactive	BRD9	SID255360117
-0.41	migration z between -2 and 2; enough cells	0.77	7214	inactive	TMEM176A	SID255358635
-0.67	migration z between -2 and 2; enough cells	0.71	6000	inactive	CEP120	SID255363559
-0.14	migration z between -2 and 2; enough cells	0.84	7072	inactive	PYM1	SID255361318
-1.64	migration z between -2 and 2; enough cells	0.46	4708	inactive	GJA10	SID255361473
-0.49	migration z between -2 and 2; enough cells	0.71	5156	inactive	FBXL2	SID255356490
-0.5	migration z between -2 and 2; enough cells	0.76	4806	inactive	LMOD1	SID255356471
0.86	migration z between -2 and 2; enough cells	1.11	4740	inactive	TMEM222	SID255361173
-1.06	migration z between -2 and 2; enough cells	0.6	4820	inactive	UBTD1	SID255360629
-1.12	migration z between -2 and 2; enough cells	0.59	4434	inactive	ETFBKMT	SID255364440
0.98	migration z between -2 and 2; enough cells	1.14	5378	inactive	SORBS1	SID255355199
1.14	migration z between -2 and 2; enough cells	1.02	6427	inactive	MLLT10	SID255353368
-2.23	migration z below -2; enough cells	0.3	5180	active	TSPY3	SID255366180
-7.13	under 3300 nuclei; migration not judged	-0.57	1678	inactive	RRAD	SID255352239
-0.39	migration z between -2 and 2; enough cells	0.73	6386	inactive	SERPINB13	SID255351570
1.29	migration z between -2 and 2; enough cells	1.05	5448	inactive	SSTR2	SID255352647
-0.42	migration z between -2 and 2; enough cells	0.72	5768	inactive	UBE2E1	SID255353032
0.08	migration z between -2 and 2; enough cells	0.82	4198	inactive	HIF1AN	SID255358758
2.79	migration z above 2; enough cells	1.61	4149	active	OMP	SID255351349
